Results from paper PMC8907200.
These are yes or no findings as the source states them, for the method shown. In cells and extracts the contact can be indirect. Some entries that bind do so weakly or less than the wild type.

Tests used:
[1] = biological target: T1, ERRα (estrogen-related receptor alpha) (human (endogenous in MDA-MB-231)) (UniProt P11474); assay: co-IP; endogenous proteins in MDA-MB-231 lysate (50 mM Tris pH7.5, 150 mM NaCl, 1 mM EDTA, 1% Triton X-100, 8% glycerol); immunoprecipitation with anti-SET7 or anti-ERRα antibodies on Sepharose-protein A, 4 °C, rabbit IgG as control; immunoblotting
T1 sequence: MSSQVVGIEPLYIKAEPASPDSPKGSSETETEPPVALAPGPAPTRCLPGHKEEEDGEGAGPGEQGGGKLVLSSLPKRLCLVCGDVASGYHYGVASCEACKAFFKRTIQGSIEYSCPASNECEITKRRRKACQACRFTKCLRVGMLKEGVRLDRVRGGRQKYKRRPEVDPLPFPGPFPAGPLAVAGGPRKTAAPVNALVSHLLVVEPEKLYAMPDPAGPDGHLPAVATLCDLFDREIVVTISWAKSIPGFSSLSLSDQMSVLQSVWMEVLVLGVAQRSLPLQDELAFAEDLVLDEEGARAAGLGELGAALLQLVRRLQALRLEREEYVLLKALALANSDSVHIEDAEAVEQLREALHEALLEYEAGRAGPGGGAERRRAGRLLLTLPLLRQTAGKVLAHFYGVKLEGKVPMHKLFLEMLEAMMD

[2] = biological target: T1, ERRα (estrogen-related receptor alpha) (human (endogenous in MDA-MB-231)); assay: proximity ligation; Duolink PLA kit on MDA-MB-231 cells fixed with 2% paraformaldehyde, anti-SET7 and anti-ERRα antibodies, DAPI counterstain; endogenous proteins

binding [1]: binds
binding [2]: binds
B1: SET7 (protein, UniProt Q8WTS6 1-366)
chain: MDSDDEMVEEAVEGHLDDDGLPHGFCTVTYSSTDRFEGNFVHGEKNGRGKFFFFDGSTLEGYYVDDALQGQGVYTYEDGGVLQGTYVDGELNGPAQEYDTDGRLIFKGQYKDNIRHGVCWIYYPDGGSLVGEVNEDGEMTGEKIAYVYPDERTALYGKFIDGEMIEGKLATLMSTEEGRPHFELMPGNSVYHFDKSTSSCISTNALLPDPYESERVYVAESLISSAGEGLFSKVAVGPNTVMSFYNGVRITHQEVDSRDWALNGNTLSLDEETVIDVPEPYNHVSKYCASLGHKANHSFTPNCIYDMFVHPRFGPIKCIRTLRAVEADEELTVAYGYDHSPPGKSGPEAPEWYQVELKAFQATQQK
